NP40-soluble protein abundance data for 22 targets are collected here from the supplement of paper PMC6411743.

Protein sequences, listed by entry. Tags and fused reporters are not part of them. Lines headed by an entry give the natural chain unless they say otherwise; changes in a name come on top.
UniProt Q6NS38: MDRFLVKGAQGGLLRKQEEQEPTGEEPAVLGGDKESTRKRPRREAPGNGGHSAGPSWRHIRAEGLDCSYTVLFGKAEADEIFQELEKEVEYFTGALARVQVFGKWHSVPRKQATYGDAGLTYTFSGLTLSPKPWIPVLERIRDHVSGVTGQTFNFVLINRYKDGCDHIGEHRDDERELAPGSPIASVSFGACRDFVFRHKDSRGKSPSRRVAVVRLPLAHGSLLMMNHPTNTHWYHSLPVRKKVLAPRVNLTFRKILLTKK
UniProt Q53ET0: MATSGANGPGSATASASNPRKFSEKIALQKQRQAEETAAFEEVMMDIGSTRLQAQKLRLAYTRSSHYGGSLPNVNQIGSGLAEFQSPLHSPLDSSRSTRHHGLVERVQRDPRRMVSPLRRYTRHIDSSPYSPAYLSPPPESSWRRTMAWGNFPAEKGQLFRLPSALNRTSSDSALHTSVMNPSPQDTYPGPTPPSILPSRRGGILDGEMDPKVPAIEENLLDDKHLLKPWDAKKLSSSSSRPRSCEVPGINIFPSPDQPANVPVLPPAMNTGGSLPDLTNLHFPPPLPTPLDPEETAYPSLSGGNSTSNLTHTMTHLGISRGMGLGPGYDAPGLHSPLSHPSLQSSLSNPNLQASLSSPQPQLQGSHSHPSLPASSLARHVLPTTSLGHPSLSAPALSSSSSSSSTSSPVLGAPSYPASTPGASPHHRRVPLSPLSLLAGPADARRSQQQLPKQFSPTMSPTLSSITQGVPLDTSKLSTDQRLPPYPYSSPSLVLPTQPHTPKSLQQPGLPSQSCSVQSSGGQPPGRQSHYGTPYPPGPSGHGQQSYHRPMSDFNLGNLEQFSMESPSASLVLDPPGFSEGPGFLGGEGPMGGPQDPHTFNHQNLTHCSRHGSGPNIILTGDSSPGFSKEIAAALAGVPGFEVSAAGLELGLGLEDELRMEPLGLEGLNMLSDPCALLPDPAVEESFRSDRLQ
UniProt Q6P2E9: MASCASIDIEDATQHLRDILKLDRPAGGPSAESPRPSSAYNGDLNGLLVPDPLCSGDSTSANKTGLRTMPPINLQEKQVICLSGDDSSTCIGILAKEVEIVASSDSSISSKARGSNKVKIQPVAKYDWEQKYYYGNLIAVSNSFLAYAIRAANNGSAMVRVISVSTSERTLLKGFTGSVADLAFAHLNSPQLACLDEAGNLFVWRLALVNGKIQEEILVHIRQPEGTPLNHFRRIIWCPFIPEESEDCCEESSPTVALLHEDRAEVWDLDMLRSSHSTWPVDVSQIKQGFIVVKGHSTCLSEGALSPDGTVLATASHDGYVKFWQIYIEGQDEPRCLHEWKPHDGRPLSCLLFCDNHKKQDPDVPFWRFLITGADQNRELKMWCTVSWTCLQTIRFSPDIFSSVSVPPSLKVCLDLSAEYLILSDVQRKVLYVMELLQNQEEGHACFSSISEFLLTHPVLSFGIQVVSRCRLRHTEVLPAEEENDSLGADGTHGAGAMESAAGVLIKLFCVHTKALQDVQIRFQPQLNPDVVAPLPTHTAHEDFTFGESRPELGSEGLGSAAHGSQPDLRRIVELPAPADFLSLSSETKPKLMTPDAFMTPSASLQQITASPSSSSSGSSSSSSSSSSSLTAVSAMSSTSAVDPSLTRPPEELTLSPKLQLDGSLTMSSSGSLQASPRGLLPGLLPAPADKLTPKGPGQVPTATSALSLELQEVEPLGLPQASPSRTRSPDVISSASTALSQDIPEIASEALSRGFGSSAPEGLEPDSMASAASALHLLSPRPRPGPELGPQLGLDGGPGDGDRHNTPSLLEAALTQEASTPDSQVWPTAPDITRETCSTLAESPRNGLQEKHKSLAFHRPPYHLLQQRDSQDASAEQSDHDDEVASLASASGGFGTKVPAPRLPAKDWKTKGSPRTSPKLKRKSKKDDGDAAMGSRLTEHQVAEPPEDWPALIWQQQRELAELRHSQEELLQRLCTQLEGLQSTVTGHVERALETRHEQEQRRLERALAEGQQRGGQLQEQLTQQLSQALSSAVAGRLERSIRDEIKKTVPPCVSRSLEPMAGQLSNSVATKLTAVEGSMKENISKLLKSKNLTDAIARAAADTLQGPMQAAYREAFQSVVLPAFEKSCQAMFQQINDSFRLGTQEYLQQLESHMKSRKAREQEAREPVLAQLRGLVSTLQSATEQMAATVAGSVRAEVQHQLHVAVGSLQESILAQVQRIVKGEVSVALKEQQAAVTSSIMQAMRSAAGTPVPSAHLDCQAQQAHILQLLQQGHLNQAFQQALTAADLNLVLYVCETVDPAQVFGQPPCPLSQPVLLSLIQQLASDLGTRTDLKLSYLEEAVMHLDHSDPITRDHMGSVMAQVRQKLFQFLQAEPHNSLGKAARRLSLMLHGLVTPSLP
UniProt Q66K74: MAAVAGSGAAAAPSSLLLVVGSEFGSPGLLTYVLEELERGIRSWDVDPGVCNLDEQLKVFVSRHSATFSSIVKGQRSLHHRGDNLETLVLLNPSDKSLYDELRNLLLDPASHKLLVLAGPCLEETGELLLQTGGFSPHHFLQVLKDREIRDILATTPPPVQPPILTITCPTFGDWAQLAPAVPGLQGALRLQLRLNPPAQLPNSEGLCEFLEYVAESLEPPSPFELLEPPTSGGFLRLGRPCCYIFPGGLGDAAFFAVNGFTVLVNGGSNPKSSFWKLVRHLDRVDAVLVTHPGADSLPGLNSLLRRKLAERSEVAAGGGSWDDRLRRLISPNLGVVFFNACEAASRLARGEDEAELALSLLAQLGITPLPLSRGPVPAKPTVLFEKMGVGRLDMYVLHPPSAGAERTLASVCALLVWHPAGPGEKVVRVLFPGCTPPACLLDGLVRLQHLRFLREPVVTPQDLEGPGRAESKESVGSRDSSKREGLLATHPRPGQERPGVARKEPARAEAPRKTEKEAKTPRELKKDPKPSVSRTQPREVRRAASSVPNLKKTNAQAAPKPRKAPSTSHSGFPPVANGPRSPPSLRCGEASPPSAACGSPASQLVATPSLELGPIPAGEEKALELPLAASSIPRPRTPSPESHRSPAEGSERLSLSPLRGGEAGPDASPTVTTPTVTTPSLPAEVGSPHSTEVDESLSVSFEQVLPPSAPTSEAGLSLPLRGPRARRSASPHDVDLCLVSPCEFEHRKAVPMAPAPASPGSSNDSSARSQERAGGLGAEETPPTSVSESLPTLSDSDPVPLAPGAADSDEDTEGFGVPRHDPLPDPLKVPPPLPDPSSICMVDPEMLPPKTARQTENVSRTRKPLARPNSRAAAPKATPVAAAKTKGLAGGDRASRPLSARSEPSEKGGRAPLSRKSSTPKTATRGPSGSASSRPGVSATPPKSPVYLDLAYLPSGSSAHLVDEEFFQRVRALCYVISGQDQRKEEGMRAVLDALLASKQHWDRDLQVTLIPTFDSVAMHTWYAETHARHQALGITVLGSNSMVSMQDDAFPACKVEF
UniProt Q6P4Q7: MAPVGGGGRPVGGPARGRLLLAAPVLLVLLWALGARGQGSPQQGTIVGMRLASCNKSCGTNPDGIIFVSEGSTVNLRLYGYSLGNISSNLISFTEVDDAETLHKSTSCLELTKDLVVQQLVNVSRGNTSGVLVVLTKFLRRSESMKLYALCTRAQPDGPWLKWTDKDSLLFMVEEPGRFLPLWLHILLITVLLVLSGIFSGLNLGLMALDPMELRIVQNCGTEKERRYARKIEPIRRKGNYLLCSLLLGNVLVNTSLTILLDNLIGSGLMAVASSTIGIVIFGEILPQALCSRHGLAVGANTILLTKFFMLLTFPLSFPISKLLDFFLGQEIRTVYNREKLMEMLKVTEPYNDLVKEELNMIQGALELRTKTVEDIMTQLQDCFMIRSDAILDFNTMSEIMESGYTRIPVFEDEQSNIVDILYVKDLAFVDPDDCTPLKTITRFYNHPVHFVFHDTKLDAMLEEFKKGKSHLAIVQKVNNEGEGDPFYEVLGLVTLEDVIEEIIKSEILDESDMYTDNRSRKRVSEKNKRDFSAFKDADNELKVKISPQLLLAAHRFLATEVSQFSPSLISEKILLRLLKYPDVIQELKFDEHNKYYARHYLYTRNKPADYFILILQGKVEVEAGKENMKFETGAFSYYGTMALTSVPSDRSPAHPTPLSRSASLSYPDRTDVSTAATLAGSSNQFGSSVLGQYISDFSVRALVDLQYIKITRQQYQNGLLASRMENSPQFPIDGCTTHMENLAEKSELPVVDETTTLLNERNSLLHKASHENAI
UniProt Q66PJ3: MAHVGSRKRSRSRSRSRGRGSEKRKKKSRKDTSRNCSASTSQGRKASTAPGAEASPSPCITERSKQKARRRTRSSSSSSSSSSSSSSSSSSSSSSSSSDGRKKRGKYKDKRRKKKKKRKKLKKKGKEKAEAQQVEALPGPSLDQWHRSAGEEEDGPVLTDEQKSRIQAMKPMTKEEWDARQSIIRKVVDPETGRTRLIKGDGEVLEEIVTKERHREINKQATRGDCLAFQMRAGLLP
UniProt Q6P3S1: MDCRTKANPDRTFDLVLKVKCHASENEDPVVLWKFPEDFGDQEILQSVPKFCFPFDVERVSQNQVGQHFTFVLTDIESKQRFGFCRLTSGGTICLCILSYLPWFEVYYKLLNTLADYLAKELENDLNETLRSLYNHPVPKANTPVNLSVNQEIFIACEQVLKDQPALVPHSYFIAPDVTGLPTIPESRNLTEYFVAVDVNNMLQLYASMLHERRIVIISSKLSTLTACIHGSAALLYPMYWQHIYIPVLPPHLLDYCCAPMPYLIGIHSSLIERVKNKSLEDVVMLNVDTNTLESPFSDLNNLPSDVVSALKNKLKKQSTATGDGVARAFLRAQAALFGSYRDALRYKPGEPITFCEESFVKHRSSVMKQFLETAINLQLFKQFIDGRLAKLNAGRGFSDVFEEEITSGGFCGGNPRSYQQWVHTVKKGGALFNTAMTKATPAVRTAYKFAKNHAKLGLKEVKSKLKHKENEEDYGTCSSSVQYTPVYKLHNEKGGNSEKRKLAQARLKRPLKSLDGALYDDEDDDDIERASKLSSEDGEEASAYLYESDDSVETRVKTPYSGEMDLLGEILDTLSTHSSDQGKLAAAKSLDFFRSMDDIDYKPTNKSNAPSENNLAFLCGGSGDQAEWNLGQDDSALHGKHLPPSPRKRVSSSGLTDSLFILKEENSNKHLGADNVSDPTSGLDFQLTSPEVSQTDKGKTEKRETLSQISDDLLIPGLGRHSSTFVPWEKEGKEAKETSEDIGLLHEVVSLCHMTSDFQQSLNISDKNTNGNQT
UniProt Q6P6B7: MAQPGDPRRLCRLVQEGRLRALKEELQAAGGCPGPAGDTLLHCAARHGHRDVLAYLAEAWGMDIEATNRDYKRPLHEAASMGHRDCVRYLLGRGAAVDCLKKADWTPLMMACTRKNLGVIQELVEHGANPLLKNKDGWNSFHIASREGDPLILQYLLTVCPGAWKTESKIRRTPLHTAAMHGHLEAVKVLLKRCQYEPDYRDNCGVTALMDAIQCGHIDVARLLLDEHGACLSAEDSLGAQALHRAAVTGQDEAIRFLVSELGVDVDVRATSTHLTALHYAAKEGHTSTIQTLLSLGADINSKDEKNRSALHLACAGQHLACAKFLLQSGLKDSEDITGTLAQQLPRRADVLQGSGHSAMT
UniProt Q5T5X7: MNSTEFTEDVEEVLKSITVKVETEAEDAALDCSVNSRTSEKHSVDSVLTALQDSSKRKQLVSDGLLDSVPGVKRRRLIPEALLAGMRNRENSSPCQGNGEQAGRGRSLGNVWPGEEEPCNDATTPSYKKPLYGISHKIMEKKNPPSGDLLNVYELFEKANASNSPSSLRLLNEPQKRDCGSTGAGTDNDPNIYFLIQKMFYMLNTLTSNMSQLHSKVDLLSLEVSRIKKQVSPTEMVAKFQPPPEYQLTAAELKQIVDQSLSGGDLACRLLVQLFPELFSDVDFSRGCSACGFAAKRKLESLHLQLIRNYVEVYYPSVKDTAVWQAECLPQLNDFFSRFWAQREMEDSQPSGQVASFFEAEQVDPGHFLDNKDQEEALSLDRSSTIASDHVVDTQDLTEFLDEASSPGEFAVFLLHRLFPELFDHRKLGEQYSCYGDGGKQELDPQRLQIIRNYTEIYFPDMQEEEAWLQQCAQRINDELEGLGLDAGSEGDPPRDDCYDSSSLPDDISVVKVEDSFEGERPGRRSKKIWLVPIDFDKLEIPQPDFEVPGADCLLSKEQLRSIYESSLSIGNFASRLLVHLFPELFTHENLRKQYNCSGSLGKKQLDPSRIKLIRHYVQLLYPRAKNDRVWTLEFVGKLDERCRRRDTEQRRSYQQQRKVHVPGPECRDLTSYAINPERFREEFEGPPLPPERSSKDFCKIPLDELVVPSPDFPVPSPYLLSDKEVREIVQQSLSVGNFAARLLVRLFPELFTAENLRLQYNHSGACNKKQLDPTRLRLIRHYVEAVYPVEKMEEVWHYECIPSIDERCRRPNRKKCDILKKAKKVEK

± gives the standard deviation of the averaged measurements. This is a selection; strong and weak results do not stand in their true shares. Most values lie at the level of the controls, where differences are scatter.

Compound in the assay: Nc1ncnc2c1ncn2[C@@H]1O[C@H](COP(=O)(O)OP(=O)(O)OP(=O)(O)O)[C@@H](O)[C@H]1O [adenosine triphosphate]
Briefly: NP40-soluble protein abundance relative to vehicle (solubility fold change) (ratio); higher = more soluble protein in presence of ATP. In a few lines: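 Across three independent experiments, values are fold changes against the detergent-processed vehicle for each replicate, based on vsn-normalised intensities. The samples were Jurkat crude lysate treated with eight concentrations (0.1 to 10 mM) for 10 min at room temperature and then 3 min at 37 °C. Lysate was solubilised with 0.8% NP40 and benzonase, ultracentrifuged, and the supernatant analysed by TMT-labelled LC-MS/MS.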

Consider UBAP2 (UniProt Q5T6F2), for which the NP40-soluble protein abundance was 0.98 ± 0.016 (concentration: 0.1mM) and 0.968 ± 0.051 (concentration: 0.5mM).

On to UniProt Q6IA86 and related entries, for which the NP40-soluble protein abundance amounted to 1.08 ± 0.05 (concentration: 0.1mM) and 1.05 ± 0.029 (concentration: 0.5mM).

For UniProt Q68E01-2|Q68E01, the NP40-soluble protein abundance (concentration: 0.1mM) came out at 1.1 ± 0.16 and the NP40-soluble protein abundance (concentration: 0.5mM) is 1.04 ± 0.1.

For UniProt Q684P5-2|Q684P5-3|Q684P5, the NP40-soluble protein abundance runs as follows: (concentration: 0.1mM) 0.988 ± 0.027; (concentration: 0.5mM) 0.998 ± 0.036.

In the case of SFXN4 (UniProt Q6P4A7), the NP40-soluble protein abundance (concentration: 0.1mM) was 0.999 ± 0.058 and the NP40-soluble protein abundance (concentration: 0.5mM) was found to be 0.984 ± 0.046.

In the case of ALKBH2 (UniProt Q6NS38), the NP40-soluble protein abundance is, setting by setting: (concentration: 0.1mM) 1 ± 0.065; (concentration: 0.5mM) 1.03 ± 0.053.

For the target UniProt Q6NYC1 and related entries, the NP40-soluble protein abundance is 1.072 ± 0.0039 (concentration: 0.1mM) and 1.06 ± 0.051 (concentration: 0.5mM).

For MED27 (UniProt Q6P2C8), the NP40-soluble protein abundance (concentration: 0.1mM) came out at 0.969 ± 0.11 and the NP40-soluble protein abundance (concentration: 0.5mM) turned out to be 0.985 ± 0.15.

As for TBCEL (UniProt Q5QJ74), the NP40-soluble protein abundance is, setting by setting: (concentration: 0.1mM) 1.14 ± 0.087; (concentration: 0.5mM) 1.04 ± 0.061.

Turning to CRTC2 (UniProt Q53ET0), the NP40-soluble protein abundance reads like this: (concentration: 0.1mM) 0.982 ± 0.043; (concentration: 0.5mM) 1.06 ± 0.046.

As for UniProt Q5VVQ6 and related entries, the NP40-soluble protein abundance by setting is: (concentration: 0.1mM) 1.07 ± 0.11; (concentration: 0.5mM) 1.02 ± 0.045.

For EDC4 (UniProt Q6P2E9), the NP40-soluble protein abundance (concentration: 0.1mM) stood at 1 ± 0.021 and the NP40-soluble protein abundance (concentration: 0.5mM) was determined as 1.02 ± 0.034.

Turning to CTR9 (UniProt Q6PD62), the NP40-soluble protein abundance (concentration: 0.1mM) worked out at 1.01 ± 0.055 and the NP40-soluble protein abundance (concentration: 0.5mM) turned out to be 1.02 ± 0.048.

For UniProt Q5JSP0 and related entries, the NP40-soluble protein abundance reads like this: (concentration: 0.1mM) 0.997 ± 0.012; (concentration: 0.5mM) 1.02 ± 0.026.

As for UniProt Q66K74 and related entries, the NP40-soluble protein abundance came out at 1 ± 0.02 (concentration: 0.1mM) and 1 ± 0.049 (concentration: 0.5mM).

Take CNNM4 (UniProt Q6P4Q7): the NP40-soluble protein abundance reads like this: (concentration: 0.1mM) 1.02 ± 0.044; (concentration: 0.5mM) 1.03 ± 0.034.

On to UniProt Q66PJ3 and related entries, for which the NP40-soluble protein abundance by setting is: (concentration: 0.1mM) 1.03 ± 0.046; (concentration: 0.5mM) 1.09 ± 0.048.

As to DENND1B (UniProt Q6P3S1), the NP40-soluble protein abundance (concentration: 0.1mM) was 1.07 ± 0.046 and the NP40-soluble protein abundance (concentration: 0.5mM) came out at 1.02 ± 0.039.

HS1BP3 (UniProt Q53T59): the NP40-soluble protein abundance was found to be 1.08 ± 0.022 (concentration: 0.1mM) and 1.03 ± 0.037 (concentration: 0.5mM).

Consider ANKRD16 (UniProt Q6P6B7), for which the NP40-soluble protein abundance (concentration: 0.1mM) is 0.938 ± 0.1 and the NP40-soluble protein abundance (concentration: 0.5mM) was 0.96 ± 0.11.

As for CROCC (UniProt Q5TZA2), the NP40-soluble protein abundance came out at 0.974 ± 0.073 (concentration: 0.1mM) and 0.941 ± 0.051 (concentration: 0.5mM).

Consider BEND3 (UniProt Q5T5X7), for which the NP40-soluble protein abundance reads like this: (concentration: 0.1mM) 1 ± 0.069; (concentration: 0.5mM) 0.979 ± 0.034.
